Data as given in PubChem BioAssay AID652272 (Drosophila RNAi Screening Center, 2013)

Aim: 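Genes whose knock-down decreases or increases Hedgehog reporter output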 (primary screen)
Cell system: Drosophila clone 8 (Cl8) cells
Knock-down reagent: long dsRNA against Drosophila genes
Measurement: 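Firefly light from a Hedgehog-responsive ptc promoter reporter and Renilla reference light, both read on a plate reader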
Scale: firefly Hh reporter signal: higher = more ptc reporter light; Renilla reference signal: higher = more Renilla control light
Call rule: 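Hit when the z-score averaged over two replicates is under -2 or over +3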
Calls: active = hit: reporter lowered or raised; inactive = not a hit
In all, the deposit lists about 21,000 reagents; shown is a random part of those that have a named target and a result. In the full data, 503 (2.4%) are marked active. 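Raw plate light values, not normalised; calls rest on replicate z-scores that were not deposited; hits include reporter decreases as well as increases.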 A plus sign joins genes that one reagent is predicted to hit. Reagent sequences are not shown. The record does not give: the amount of reagent, the time to read-out.

Against Ugt317A1 [DRSC04470], the entry reads firefly Hh reporter signal, replicate 1 = 1.13e5; firefly Hh reporter signal, replicate 2 = 64196; Renilla reference signal, replicate 1 = 3269; Renilla reference signal, replicate 2 = 5830; inactive. CG13995 [DRSC00907] gave firefly Hh reporter signal, replicate 1 = 7.90e5; firefly Hh reporter signal, replicate 2 = 8.04e5; firefly Hh reporter signal, replicate 3 = 3.03e5; Renilla reference signal, replicate 1 = 38176; Renilla reference signal, replicate 2 = 5616; inactive. CG13995 [DRSC02327] showed firefly Hh reporter signal, replicate 1 = 1.59e5; firefly Hh reporter signal, replicate 2 = 75948; Renilla reference signal, replicate 1 = 4346; Renilla reference signal, replicate 2 = 7504; inactive. For Tie [DRSC08104], the entry reads firefly Hh reporter signal, replicate 1 = 76016; firefly Hh reporter signal, replicate 2 = 1.23e5; Renilla reference signal, replicate 1 = 3515; Renilla reference signal, replicate 2 = 8044; active. After knock-down of Tie [DRSC08702], the record shows firefly Hh reporter signal, replicate 1 = 37273; firefly Hh reporter signal, replicate 2 = 46666; Renilla reference signal, replicate 1 = 4464; Renilla reference signal, replicate 2 = 3856; inactive. Against PPO1 [DRSC05929], the values are firefly Hh reporter signal, replicate 1 = 1.54e5; firefly Hh reporter signal, replicate 2 = 1.27e5; Renilla reference signal, replicate 1 = 6327; Renilla reference signal, replicate 2 = 4805; inactive.

For CG5892 [DRSC15910] the deposit lists firefly Hh reporter signal, replicate 1 = 4.88e5; firefly Hh reporter signal, replicate 2 = 1.91e5; Renilla reference signal, replicate 1 = 23120; Renilla reference signal, replicate 2 = 3568; inactive. Silencing of kud [DRSC11086] gave: firefly Hh reporter signal, replicate 1 = 1.62e5; Renilla reference signal, replicate 1 = 6763; Renilla reference signal, replicate 2 = 4076; inactive. beat-Ic [DRSC01524] gave firefly Hh reporter signal, replicate 1 = 1.08e5; firefly Hh reporter signal, replicate 2 = 2.17e5; Renilla reference signal, replicate 1 = 3084; Renilla reference signal, replicate 2 = 9437; inactive. For beat-Ic [DRSC03491], the values are firefly Hh reporter signal, replicate 1 = 1.04e5; firefly Hh reporter signal, replicate 2 = 34688; Renilla reference signal, replicate 1 = 3147; Renilla reference signal, replicate 2 = 4035; inactive. For Fbl6 [DRSC06335], the entry reads firefly Hh reporter signal, replicate 1 = 81654; firefly Hh reporter signal, replicate 2 = 59372; Renilla reference signal, replicate 1 = 3043; Renilla reference signal, replicate 2 = 1964; inactive. After knock-down of CR43087 + CR43086 + CG34002 [DRSC11953] the results were firefly Hh reporter signal, replicate 1 = 2.75e5; Renilla reference signal, replicate 1 = 4736; inactive.

dysc [DRSC10273] gave firefly Hh reporter signal, replicate 1 = 28317; firefly Hh reporter signal, replicate 2 = 69856; firefly Hh reporter signal, replicate 3 = 4.10e5; Renilla reference signal, replicate 1 = 3088; Renilla reference signal, replicate 2 = 3451; inactive. dysc [DRSC11040] showed firefly Hh reporter signal, replicate 1 = 47555; firefly Hh reporter signal, replicate 2 = 89244; firefly Hh reporter signal, replicate 3 = 43704; Renilla reference signal, replicate 1 = 5242; Renilla reference signal, replicate 2 = 2972; inactive. CG43069 [DRSC05752] scored firefly Hh reporter signal, replicate 1 = 89597; firefly Hh reporter signal, replicate 2 = 2.10e5; Renilla reference signal, replicate 1 = 2423; Renilla reference signal, replicate 2 = 8928; inactive. Silencing of sosie [DRSC14636] came out at: firefly Hh reporter signal, replicate 1 = 7.10e5; firefly Hh reporter signal, replicate 2 = 1.54e5; Renilla reference signal, replicate 1 = 35233; Renilla reference signal, replicate 2 = 4696; inactive. lncRNA:CR43302 [DRSC12668] gave firefly Hh reporter signal, replicate 1 = 1.52e5; Renilla reference signal, replicate 1 = 3616; inactive. Depletion of Gpo2 [DRSC06822] gave: firefly Hh reporter signal, replicate 1 = 1.23e5; firefly Hh reporter signal, replicate 2 = 49906; Renilla reference signal, replicate 1 = 3111; Renilla reference signal, replicate 2 = 4505; inactive.

Silencing of CG13127 [DRSC02223] gave: firefly Hh reporter signal, replicate 1 = 1.27e5; firefly Hh reporter signal, replicate 2 = 36274; Renilla reference signal, replicate 1 = 3148; Renilla reference signal, replicate 2 = 5168; inactive. Against Psa [DRSC08152] the deposit lists firefly Hh reporter signal, replicate 1 = 1.08e5; firefly Hh reporter signal, replicate 2 = 84827; Renilla reference signal, replicate 1 = 4996; Renilla reference signal, replicate 2 = 3516; inactive. With knock-down of Ste:CG33238 + Ste:CG33241 + Ste:CG33236 + 11 more [DRSC19004], the screen gave firefly Hh reporter signal, replicate 1 = 5.44e5; firefly Hh reporter signal, replicate 2 = 1.73e5; Renilla reference signal, replicate 1 = 32583; Renilla reference signal, replicate 2 = 4029; inactive. Knock-down of Ste:CG33238 + Ste:CG33241 + Ste:CG33236 + 11 more [DRSC21260] gave: firefly Hh reporter signal, replicate 1 = 1.03e5; firefly Hh reporter signal, replicate 2 = 2.31e5; Renilla reference signal, replicate 1 = 3757; Renilla reference signal, replicate 2 = 9564; inactive. Depletion of Npc2f [DRSC15980] resulted in: firefly Hh reporter signal, replicate 1 = 1.54e5; firefly Hh reporter signal, replicate 2 = 77074; Renilla reference signal, replicate 1 = 5514; Renilla reference signal, replicate 2 = 3098; inactive. Silencing of PGS1 [DRSC16304] resulted in: firefly Hh reporter signal, replicate 1 = 7.82e5; firefly Hh reporter signal, replicate 2 = 1.34e5; Renilla reference signal, replicate 1 = 37828; Renilla reference signal, replicate 2 = 3708; inactive.

After knock-down of CG31267 [DRSC15748] the results were firefly Hh reporter signal, replicate 1 = 89936; firefly Hh reporter signal, replicate 2 = 1.09e5; Renilla reference signal, replicate 1 = 2008; Renilla reference signal, replicate 2 = 7557; inactive. For CG43254 [DRSC12638], the values are firefly Hh reporter signal, replicate 1 = 2.03e5; Renilla reference signal, replicate 1 = 4560; inactive. Depletion of CG32379 [DRSC10318] gave: firefly Hh reporter signal, replicate 1 = 38643; firefly Hh reporter signal, replicate 2 = 38791; Renilla reference signal, replicate 1 = 5216; Renilla reference signal, replicate 2 = 3329; inactive.

2 successive records already listed, for reference:
Fbl6 [DRSC06335] → firefly Hh reporter signal, replicate 1: 81654; firefly Hh reporter signal, replicate 2: 59372; Renilla reference signal, replicate 1: 3043; Renilla reference signal, replicate 2: 1964; Call: inactive
CR43087 + CR43086 + CG34002 [DRSC11953] → firefly Hh reporter signal, replicate 1: 2.75e5; Renilla reference signal, replicate 1: 4736; Call: inactive
